Legend:
[1] = test system: SARS-CoV-2 in A549/ACE2 cells; type: cell-based
[2] = test system: SARS-CoV-2 in Vero E6 cells; type: cell-based
[3] = target: SARS-CoV-2 main protease (Mpro) (Severe acute respiratory syndrome coronavirus 2, UniProt P0DTD1); experiment: biochemical

Row | SMILES | SARS-CoV-2 induced CPE at all tested concentrations [1] | SARS-CoV-2 induced CPE at all tested concentrations [2] | Hill slope [3] | IC50 [3] [µM]
1 | CC(C)(C)c1ccc(C(=O)CCCN2CCC(OC(c3ccccc3)c3ccccc3)CC2)cc1 [Ebastine] | CPE was clearly observable | CPE was clearly observable | 1.5 ± 0.2 | 57 ± 12
2 | Clc1ccc(CO/N=C(\Cn2ccnc2)c2ccc(Cl)cc2Cl)c(Cl)c1 [Oxiconazole] | – | – | 3.8 ± 0.4 | 99 ± 6
